This note sets out measurements from US20030113325A1 (CHILDREN S MEDICAL CENTER, published 2003).

Sequences of proteins named here, by UniProt entry; tags and fusion partners are left off. A change or cut given only in a name is not applied to a line headed by its entry.
UniProt P05187: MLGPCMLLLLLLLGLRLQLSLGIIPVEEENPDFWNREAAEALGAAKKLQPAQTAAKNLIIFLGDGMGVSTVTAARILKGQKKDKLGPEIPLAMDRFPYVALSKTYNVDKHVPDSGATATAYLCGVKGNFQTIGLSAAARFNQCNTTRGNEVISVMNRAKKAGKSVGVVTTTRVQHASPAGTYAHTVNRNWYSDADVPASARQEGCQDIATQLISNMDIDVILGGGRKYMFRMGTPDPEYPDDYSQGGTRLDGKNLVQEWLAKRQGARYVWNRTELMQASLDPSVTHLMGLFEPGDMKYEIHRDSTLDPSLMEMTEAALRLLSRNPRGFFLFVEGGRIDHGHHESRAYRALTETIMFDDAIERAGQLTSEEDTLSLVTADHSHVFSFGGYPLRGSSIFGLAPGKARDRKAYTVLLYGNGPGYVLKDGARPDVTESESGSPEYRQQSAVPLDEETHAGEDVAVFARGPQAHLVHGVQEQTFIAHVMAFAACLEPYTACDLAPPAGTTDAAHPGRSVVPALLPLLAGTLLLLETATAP

Assay [1] deals with T1, Nogo-66 receptor (NgR), full-length, expressed on transfected cells (human) (UniProt Q9BZR6).
T1 sequence (looked up): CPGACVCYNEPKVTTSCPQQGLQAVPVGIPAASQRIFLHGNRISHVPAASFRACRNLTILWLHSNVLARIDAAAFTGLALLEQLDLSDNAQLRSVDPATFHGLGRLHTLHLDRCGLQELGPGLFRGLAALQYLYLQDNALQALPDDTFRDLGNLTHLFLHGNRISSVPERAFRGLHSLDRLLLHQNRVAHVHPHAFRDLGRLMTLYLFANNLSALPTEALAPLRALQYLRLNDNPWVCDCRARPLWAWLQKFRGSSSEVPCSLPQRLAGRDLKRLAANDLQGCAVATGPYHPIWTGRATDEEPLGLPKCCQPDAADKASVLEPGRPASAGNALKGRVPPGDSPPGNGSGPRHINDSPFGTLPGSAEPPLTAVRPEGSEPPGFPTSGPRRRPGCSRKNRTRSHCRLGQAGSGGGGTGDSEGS
Put plainly: AP fusion protein in conditioned medium on NgR-expressing CHO cells.

In assay [2] the target is T2, AP-OMgp fusion protein (mouse) (UniProt Q63912).
T2 sequence (looked up): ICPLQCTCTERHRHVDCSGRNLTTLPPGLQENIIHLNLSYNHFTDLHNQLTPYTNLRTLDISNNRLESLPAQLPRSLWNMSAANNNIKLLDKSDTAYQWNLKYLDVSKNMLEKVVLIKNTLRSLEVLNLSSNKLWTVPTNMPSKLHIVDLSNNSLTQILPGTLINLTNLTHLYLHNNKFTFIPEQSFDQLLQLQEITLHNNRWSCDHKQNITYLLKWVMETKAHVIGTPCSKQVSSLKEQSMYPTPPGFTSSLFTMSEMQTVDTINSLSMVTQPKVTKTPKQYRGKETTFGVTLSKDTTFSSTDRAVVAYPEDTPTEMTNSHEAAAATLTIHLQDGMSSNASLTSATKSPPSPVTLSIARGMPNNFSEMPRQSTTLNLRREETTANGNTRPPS
Put plainly: coimmunoprecipitation.

No constants are given. Whether binding was seen depends on the method and setting. For some assays here: In cells and extracts the contact can be indirect. Some entries that bind do so weakly or less than the wild type. For some assays here: Where a sequence is shown, tags or fusion partners need not be part of it.

Take “AP-OMgp-LRR (from UniProt P05187 23-511; Q63912 25-228) (ligand)”: the binding entry in assay [1] is listed as “binds”.

B1: GST-NgR fusion protein containing the entire extracellular domain of NgR (receptor, UniProt Q9BZR6 27-447, looked up)
chain: CPGACVCYNEPKVTTSCPQQGLQAVPVGIPAASQRIFLHGNRISHVPAASFRACRNLTILWLHSNVLARIDAAAFTGLALLEQLDLSDNAQLRSVDPATFHGLGRLHTLHLDRCGLQELGPGLFRGLAALQYLYLQDNALQALPDDTFRDLGNLTHLFLHGNRISSVPERAFRGLHSLDRLLLHQNRVAHVHPHAFRDLGRLMTLYLFANNLSALPTEALAPLRALQYLRLNDNPWVCDCRARPLWAWLQKFRGSSSEVPCSLPQRLAGRDLKRLAANDLQGCAVATGPYHPIWTGRATDEEPLGLPKCCQPDAADKASVLEPGRPASAGNALKGRVPPGDSPPGNGSGPRHINDSPFGTLPGSAEPPLTAVRPEGSEPPGFPTSGPRRRPGCSRKNRTRSHCRLGQAGSGGGGTGDSEGS
notes: extracellular domain; not shown: glutathione S-transferase (GST) fusion partner
Regarding B1, the binding entry in assay [2] is on record as “binds”.
